# Assay results as given in patent US5874455A, “Method for treatment of cataract with radical scavenger” (priority 1993, dated 1999).
# At least one structure is not confirmed: it was looked up by name or label, or the drawing left a doubt.
# Test system: Diamide-Treated Mice Lenses
# Assay: Na+/K+ ratio and Ca2+ contents in diamide-treated mice lenses
# Assay type: cell-based, mouse (ddY)
# Conditions: 1 Mm (so in the source), vs control levels
# Protocol: Male ddY mice, 6 weeks old, were killed by decapitation, and the […] were excised. The lenses were removed by a posterior approach and then transferred on a nylon net to a petri dish containing D-MEM medium (low glucose). The lenses were incubated at 37° C. for 19-20 hr in CO2 incubator under 5% CO2 -air and clear transparent lenses were collected to be used for following experiments. The lenses were incubated at 37° C. for 1.5 hr in 3 ml of isotonic HEPES buffer (10 mM HEPES, 136.2 mM NaCl, 5.3 mM KCl, 1.0 mM K2 HPO4, 1.7 mM CaC2 .cndot.2H2 O, 5.5 mM glucose pH 7.4) containing 1 mM diamide and the HEPES buffer without glucose. Those were transferred to an incubation test tube containing 3 ml of isotonic HEPES buffer (pH 7.4) with 1 mM DDC or GE. The diamide treated and non-treated controls were treated by the 5 hr-incubation without the above agents. The wet weight of these treated lenses were determined. Lenses were dried in vacuo at 100° C. for 8 hr, and then digested in 60% nitric acid (100 μl/lens) at 80° C. to degrade organic substances. One milliliter of purified water was added to the digests, and centrifuged at 3000×g for 10 min. […] One tenth milliliter of 100 μg/ml lanthanum chloride was added to the residual supernatant and used for measurement of Ca^2+, Na^+,K^+ and Ca^2+ contents in the lenses were determined by atomic absorption spectrometer (Hitachi 180-80, Tokyo, Japan).
smiles,measurement,value
"CCN(CC)C(=S)S [DDC, Diethyldithiocarbamate]",Na+/K+ ratio (in words),restored completely
